# Library screening results

Protein sequences, listed by entry. Tags and fused reporters are not part of them.
UniProt E9BF75, entry or part of it: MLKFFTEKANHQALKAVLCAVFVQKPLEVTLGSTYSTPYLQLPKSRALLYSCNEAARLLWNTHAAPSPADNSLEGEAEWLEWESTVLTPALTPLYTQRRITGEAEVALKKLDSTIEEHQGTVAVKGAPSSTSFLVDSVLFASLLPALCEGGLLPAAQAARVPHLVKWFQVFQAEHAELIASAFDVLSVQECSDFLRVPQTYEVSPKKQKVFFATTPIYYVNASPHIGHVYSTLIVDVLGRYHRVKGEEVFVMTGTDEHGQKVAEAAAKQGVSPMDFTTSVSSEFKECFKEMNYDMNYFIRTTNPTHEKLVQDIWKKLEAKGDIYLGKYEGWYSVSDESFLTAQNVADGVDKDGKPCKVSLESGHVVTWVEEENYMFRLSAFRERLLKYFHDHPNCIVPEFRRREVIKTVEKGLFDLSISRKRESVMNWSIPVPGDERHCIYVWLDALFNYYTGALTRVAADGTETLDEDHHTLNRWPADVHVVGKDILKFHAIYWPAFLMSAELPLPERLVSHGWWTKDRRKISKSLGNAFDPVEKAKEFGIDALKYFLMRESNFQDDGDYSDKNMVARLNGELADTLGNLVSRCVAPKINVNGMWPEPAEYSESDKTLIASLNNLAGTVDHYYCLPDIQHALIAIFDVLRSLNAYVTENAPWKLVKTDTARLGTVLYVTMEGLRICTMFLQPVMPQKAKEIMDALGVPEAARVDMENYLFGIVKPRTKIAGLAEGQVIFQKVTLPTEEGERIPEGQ

Source: ChEMBL document CHEMBL3988442, “University of Dundee, Small-Polar-MMV Screening Library” (2021).

Mtb heat-shock: 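Assay on Mycobacterium tuberculosis, filed only as a heat shock assay from Cornell; the read-out is not stated. The concentration is filed as 10 mM, unlikely as a test dose, so the dose is not known. The record gives no direction; compounds that gave an IC50 in retests scored well above the rest, so higher reads as stronger inhibition. About 69,000 compounds were tested under these conditions; 1.4% (about 930) showed 50% or more at least once.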
Mtb growth Cornell: 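Whole-cell assay for inhibitors of Mycobacterium tuberculosis growth, labelled Cornell in the record; the read-out is not stated. The concentration is filed as 10 mM, unlikely as a test dose, so the dose is not known. The record gives no direction; compounds strong in two other growth screens of this library score well above the rest, so higher reads as stronger inhibition. Size under these conditions: about 53,000 compounds, about 900 of them at 50% or above in at least one test.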
LdMetRS: 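Primary screen of methionyl-tRNA synthetase; the read-out is not stated. Target: Methionyl-tRNA synthetase (putative), Leishmania donovani (UniProt E9BF75). The test concentration is not given. The values are filed as inhibition. Of about 68,000 compounds tested this way, about 24 (0.035%) reached 50% or more in at least one test.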

All values are in %.
How 0% and 100% were set is not recorded. Most values in the screen are low, and negative values occur.
The compounds are a random part of those screened.

COCCN(C)C[C@@H]1CN(C(=O)c2ccc(=O)n(C)c2)C[C@@H]1CO read Mtb heat-shock: 2.614%; Mtb growth Cornell: 11.11%; LdMetRS: 19.77%.
O=C(O)C(F)(F)F.[H][C@@]12COC[C@]1(COCC(=O)N(C)C)CN(Cc1nc(C)cs1)C2 read Mtb heat-shock: -22.07%.
c1ncn(CCNC2CCCN(Cc3noc(C4CC4)n3)C2)n1 (centres undefined) read Mtb heat-shock: 41.14%; Mtb growth Cornell: 16.43%; LdMetRS: 3.855%.
C=C(C)COc1ccccc1C(=O)N1CCC2(CC1)CN(C)CCN2C read Mtb heat-shock: 14.32%; Mtb growth Cornell: 13.72%; LdMetRS: -4.087%.
CCCS(=O)(=O)N1CCOC2(CCCN(c3ncc(F)cn3)C2)C1 (centres undefined) read Mtb heat-shock: 5.908%; Mtb growth Cornell: -19.97%; LdMetRS: 15.79%.
CN1CCC2(COCCN(Cc3cccc(C#N)c3)C2)C1.O=C(O)C(F)(F)F.O=C(O)C(F)(F)F (centres undefined) read Mtb heat-shock: -27.48%; Mtb growth Cornell: 6.359%.
COc1ccc(C(=O)NS(C)(=O)=O)cc1-c1ccccc1 read Mtb heat-shock: -20.4%; Mtb growth Cornell: 36.61%; LdMetRS: 12.32%.
CC(C)c1noc(CN2CCC(c3nc4cc(Cl)ccc4o3)CC2)n1 read Mtb heat-shock: -14.24%; LdMetRS: 10.66%.
Cc1cc(C)c(CNC(=O)N2CCCC2c2ccccc2)c(=O)[nH]1 (centres undefined) read Mtb heat-shock: 4.521%; LdMetRS: 21.53%.
CCc1noc(CN(CC)C(=O)c2ccc3ncsc3c2)n1 read Mtb heat-shock: 18.21%; Mtb growth Cornell: 3.046%; LdMetRS: 4.514%.
CC(CNC(=O)c1cccnc1O)Cn1cccn1 (centres undefined) read Mtb heat-shock: -24.88%; LdMetRS: 5.861%.
O=C(O)C(F)(F)F.O=C(O)C(F)(F)F.[H][C@@]12CCN(Cc3nccs3)C[C@]1([H])O[C@@H](C(=O)Nc1cccnc1)C2 read Mtb heat-shock: 1.15%; Mtb growth Cornell: -16.7%.
Cc1nn(C)cc1S(=O)(=O)N(CCc1ccccc1)Cc1ccn(C)n1 read Mtb heat-shock: 16.16%; LdMetRS: 18.34%.
O=C(O)C(F)(F)F.[H][C@]12CCCN(Cc3ccc(F)cc3)[C@@]1([H])CN(C(=O)c1ccco1)C2 read Mtb heat-shock: -12.77%; Mtb growth Cornell: 6.657%.
CCCN(Cc1nccn1C)C(=O)c1cnn[nH]1 read Mtb heat-shock: -15.22%; Mtb growth Cornell: -1.289%; LdMetRS: 10.05%.
Cc1ncc(C(=O)N2C[C@H]3CC[C@@H]2CN(S(=O)(=O)N(C)C)C3)c(C)n1 read LdMetRS: 10.73%.
COCC(=O)N1CCc2[nH]nc(-c3ccc4c(c3)OCO4)c2C1 read Mtb heat-shock: 9.578%; Mtb growth Cornell: 14.24%; LdMetRS: 11.34%.
[H][C@@]12CN(c3ncnc4sccc34)C[C@]1(C(=O)O)CN(CC1CC1)C2=O read Mtb heat-shock: 16.07%; Mtb growth Cornell: 7.973%.
Cc1nc(NC2CCN(S(=O)(=O)c3ccccc3)CC2)[nH]c(=O)c1C read Mtb heat-shock: 1.431%; Mtb growth Cornell: -2.855%; LdMetRS: 14.78%.
COc1ccc(CN2C[C@@H]3CCCO[C@@H]3[C@H](NS(C)(=O)=O)C2)cc1 read LdMetRS: 12.97%.
Cc1ccccc1CC(C)(C)NC(=O)COc1cccc(C(N)=O)c1 read Mtb heat-shock: 13.75%; Mtb growth Cornell: 8.92%; LdMetRS: 8.424%.
CCc1ccccc1OCCNCCc1c[nH]cn1 read Mtb heat-shock: -21.79%; Mtb growth Cornell: 12.38%; LdMetRS: 10.88%.
Cc1cnn(C2CCCN(C(=O)c3cn(-c4ccccc4)nc3C)C2)c1 (centres undefined) read Mtb heat-shock: -18.11%; Mtb growth Cornell: -8.383%; LdMetRS: 15.32%.
CS(=O)(=O)NCC1(c2ccccc2Br)CC1 read Mtb heat-shock: -13.71%; Mtb growth Cornell: 28.42%; LdMetRS: 21.31%.
Cn1ccc(CN2CCCC23CCN(Cc2nccn2C)CC3)n1.O=C(O)C(F)(F)F.O=C(O)C(F)(F)F read Mtb heat-shock: 9.444%; Mtb growth Cornell: 6.665%.
c1cnc(NC2COC3(CCN(Cc4cc[nH]n4)CC3)C2)nc1 (centres undefined) read LdMetRS: 8.383%.
O=C(O)C(F)(F)F.[H][C@@]12C[C@@H](C(=O)Nc3cccnc3)CN(S(C)(=O)=O)[C@]1([H])CCO2 read Mtb heat-shock: -18.99%; Mtb growth Cornell: 1.915%.
Cc1cc(NC(=O)Cn2cc(C#N)c(=O)c3cc(Br)ccc32)no1 read Mtb heat-shock: 7.274%; Mtb growth Cornell: 14.75%; LdMetRS: 17.56%.
CCc1nccn1-c1cncc(C2CCCN2Cc2ccccn2)n1 (centres undefined) read Mtb heat-shock: -16.73%; LdMetRS: 9.647%.
Cc1c(C(=O)NCC2CCN(Cc3ccco3)C2)[nH]c2ccccc12 (centres undefined) read Mtb heat-shock: 13.55%; Mtb growth Cornell: -0.2029%; LdMetRS: 16.67%.
Cc1cccc(C)c1OCC(=O)NS(=O)(=O)c1c(C)noc1C read Mtb heat-shock: 6.038%; LdMetRS: 7.731%.
CCc1ccccc1NCc1nc2[nH]c(C)c(C)c(=O)n2n1 read Mtb heat-shock: 6.835%; Mtb growth Cornell: -10.14%; LdMetRS: 2.842%.
c1cnc(-c2nc(CNCCn3cccn3)cs2)nc1 read Mtb heat-shock: -0.9429%; LdMetRS: 2.041%.
c1ccc(-c2nnc(CNCC3CCCN3c3cccnn3)o2)cc1 (centres undefined) read Mtb heat-shock: -22.96%; Mtb growth Cornell: 0.06475%; LdMetRS: 7.092%.
CCN(CC)S(=O)(=O)c1ccc(CCC(=O)NCc2cc(C)on2)cc1 read Mtb heat-shock: -3.767%; LdMetRS: 18.47%.
Cc1nccn1C1CCCN(C(=O)c2cc3c(F)cccc3[nH]2)C1 (centres undefined) read Mtb heat-shock: -8.651%; LdMetRS: 21.13%.
O=C(O)C(F)(F)F.O=C(O)C(F)(F)F.O=C(O)C(F)(F)F.c1cncc(COCC2CN(Cc3cccnc3)Cc3ccnn3C2)c1 (centres undefined) read Mtb heat-shock: -26.89%; Mtb growth Cornell: 9.164%.
CCOCC(=O)N1CCc2nc(C)nc(NC(C)C)c2CC1 read Mtb heat-shock: 15.82%; Mtb growth Cornell: -12.05%; LdMetRS: -5.168%.
CNc1nc2c(s1)C(=O)CN(C(=O)[C@@H](N)Cc1cccc(OC)c1)C2 read Mtb heat-shock: 5.35%; Mtb growth Cornell: 17.45%; LdMetRS: 14.81%.